These are yes or no findings as the source states them, for the method shown. In cells and extracts the contact can be indirect. Some results given as binding are weak or reduced against the parent protein; the word gives no strength.
Assays:
Assay in all cases: co-IP
[1] = biological target: EGFP-SNAP25b P117G (rat) (UniProt P60881)
[2] = biological target: EGFP-SNAP25b WT (rat) (UniProt P60881)
[3] = biological target: EGFP-SNAP25b Δ(101-108) (rat) (UniProt P60881)

Amino acid sequences for entries named in this document (tags omitted). A change or cut given only in a name is not applied to a line headed by its entry.
UniProt P60881, whole entry: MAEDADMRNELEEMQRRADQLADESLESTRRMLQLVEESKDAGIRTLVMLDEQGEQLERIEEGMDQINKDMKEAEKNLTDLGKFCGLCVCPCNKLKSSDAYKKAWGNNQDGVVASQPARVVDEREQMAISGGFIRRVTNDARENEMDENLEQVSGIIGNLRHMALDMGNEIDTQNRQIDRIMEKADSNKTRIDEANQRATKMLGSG
UniProt Q8IUH5, whole entry: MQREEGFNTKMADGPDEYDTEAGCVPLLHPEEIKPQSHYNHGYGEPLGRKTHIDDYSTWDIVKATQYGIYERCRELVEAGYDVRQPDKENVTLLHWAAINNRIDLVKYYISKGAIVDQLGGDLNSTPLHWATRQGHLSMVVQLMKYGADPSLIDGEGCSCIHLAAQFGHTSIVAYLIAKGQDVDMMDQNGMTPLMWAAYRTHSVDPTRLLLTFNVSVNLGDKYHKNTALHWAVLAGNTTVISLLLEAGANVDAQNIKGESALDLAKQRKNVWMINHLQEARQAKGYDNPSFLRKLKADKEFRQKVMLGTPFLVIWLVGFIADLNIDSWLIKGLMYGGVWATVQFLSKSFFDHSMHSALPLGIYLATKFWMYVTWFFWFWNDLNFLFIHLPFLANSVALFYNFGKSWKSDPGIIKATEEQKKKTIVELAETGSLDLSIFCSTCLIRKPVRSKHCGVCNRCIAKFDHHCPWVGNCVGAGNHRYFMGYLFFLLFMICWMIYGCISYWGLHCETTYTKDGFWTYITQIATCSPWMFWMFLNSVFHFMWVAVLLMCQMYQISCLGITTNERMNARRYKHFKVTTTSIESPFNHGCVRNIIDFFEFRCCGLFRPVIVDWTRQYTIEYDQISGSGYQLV

HA-zDHHC17 (from UniProt Q8IUH5 1-632) (enzyme)
binding [1]: no binding
binding [2]: binds
binding [3]: binds
